Source: paper PMC4928127, “Determination of GLUT1 Oligomerization Parameters using Bioluminescent Förster Resonance Energy Transfer” (Scientific Reports, 2016)
No constants are given. Whether binding was seen depends on the method and setting. In cells and extracts the contact can be indirect. Tags and fused reporters may be left off the sequences shown.

What was measured:
Nluc-GLUT1 = molecular target: T1, Nluc-GLUT1 (mouse, UniProt P17809 1-492); assay: FRET or BRET; saturation BRET in live 293FT cells: fixed amount of Nluc donor fusion, increasing amounts of mCherry acceptor fusion, transient transfection; corrected BRET against acceptor:donor plasmid ratio, fit to standard binding curves
T1 construct: facilitated glucose transporter GLUT1 (SLC2A1), mouse Glut1 open reading frame; BRET donor; also called GLUT1 fused to Nluc at the N-terminus; not shown: Nanoluciferase (Nluc), N-terminal, kept
T1 sequence (looked up): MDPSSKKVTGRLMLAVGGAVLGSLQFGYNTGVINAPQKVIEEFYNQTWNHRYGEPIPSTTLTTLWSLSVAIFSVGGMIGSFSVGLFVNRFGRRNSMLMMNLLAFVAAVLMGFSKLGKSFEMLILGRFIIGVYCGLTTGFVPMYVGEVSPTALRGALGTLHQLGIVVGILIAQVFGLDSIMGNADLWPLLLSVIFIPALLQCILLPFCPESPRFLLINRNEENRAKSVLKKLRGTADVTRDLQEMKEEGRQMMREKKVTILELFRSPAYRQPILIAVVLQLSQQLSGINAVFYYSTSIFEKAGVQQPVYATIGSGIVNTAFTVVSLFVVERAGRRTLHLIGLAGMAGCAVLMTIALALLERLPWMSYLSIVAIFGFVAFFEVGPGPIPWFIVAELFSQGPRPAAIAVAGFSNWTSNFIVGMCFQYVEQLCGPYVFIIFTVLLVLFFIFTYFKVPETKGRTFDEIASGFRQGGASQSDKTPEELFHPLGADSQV

GLUT1-Nluc (mouse) = molecular target: T2, GLUT1-Nluc (mouse) (UniProt P17809); assay: as above
T2 sequence: T1 sequence (looked up)

CD44-mCherry
binding (Nluc-GLUT1): no binding | binding (GLUT1-Nluc (mouse)): no binding
